In patent US20190382462A1, “METHODS AND COMPOSITIONS FOR TREATING HPA HYPERACTIVITY” (priority 2017, published 2019):
These are yes or no findings as the source states them, for the method shown. Some entries that bind do so weakly or less than the wild type. Tags and fused reporters may be left off the sequences shown.

Tests used:
[1] = biological target: T1, Biotinylated CRF (corticotropin-releasing factor) (UniProt P06850); test: ELISA, biotinylated CRF on avidin-coated plate, detection with HRP-anti-hIgG or HRP-protein-A
T1 sequence (peptide, biotinylated (site not stated), looked up): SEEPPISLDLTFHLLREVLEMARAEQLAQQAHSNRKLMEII

[2] = biological target: T1, Biotinylated CRF (corticotropin-releasing factor); test: ELISA, biotinylated CRF on avidin-coated plate, detection with HRP-conjugated anti-hIgG or protein-A
[3] = biological target: T1, Biotinylated CRF (corticotropin-releasing factor); test: ELISA (FIG. 7)
[4] = biological target: T1, Biotinylated CRF (corticotropin-releasing factor); test: ELISA: biotinylated CRF (bCRF) immobilized on avidin-coated plate, bound CRFBP-Fc detected with HRP-anti-hIgG or HRP-protein A

binding [1]: binds
binding [2]: binds
binding [3]: binds
binding [4]: binds
B1: CRFBP-Fc fusion protein composed of CRF-BP(25-322) fused to human IgG2 Fc (SEQ ID NO:23) (Fc fusion)
chain: YLELREAADYDPFLLFSANLKRELAGEQPYRRALRCLDMLSLQGQFTFTADRPQLHCAAFFISEPEEFITIHYDQVSIDCQGGDFLKVFDGWILKGEKFPSSQDHPLPSAERYIDFCESGLSRRSIRSSQNVAMIFFRVHEPGNGFTLTIKTDPNLFPCNVISQTPNGKFTLVVPHQHRNCSFSIIYPVVIKISDLTLGHVNGLQLKKSSAGCEGIGDFVELLGGTGLDPSKMTPLADLCYPFHGPAQMKVGCDNTVVRMVSSGKHVNRVTFEYRQLEPYELENPNGNSIGEFCLSGLGSGGGGSGGGGSGGGGSGGGGSGGGGSGGGGSRSVECPPCPAPPVAGPSVFLFPPKPKDTLMISRTPEVTCVVVDVSHEDPEVQFNWYVDGVEVHNAKTKPREEQFNSTFRVVSVLTVVHQDWLNGKEYKCKVSNKGLPAPIEKTISKTKGQPREPQVYTLPPSREEMTKNQVSLTCLVKGFYPSDIAVEWESNGQPENNYKTTPPMLDSDGSFFLYSKLTVDKSRWQQGNVFSCSVMHEALHNHYTQKSLSLSPGK
